Test [1] has as its target Type I insulin-like growth factor receptor (human (endogenous in MG63)) (UniProt P08069). The test can be described thus: co-IP; MG63 cell extracts in RIPA buffer; anti-IGF-IR antibody overnight at 4 °C, then protein A/G agarose for 4 h at 4 °C; Western blot of the precipitate; cells kept in serum-free medium or treated with biglycan (10 μg/mL) for 48 h; for SUMO-1 also DMSO or AG1024 (10 μM).

Protein sequences, listed by entry. Tags and fused reporters are not part of them. Residues count along the entry.
UniProt P08069, residues 31-1367: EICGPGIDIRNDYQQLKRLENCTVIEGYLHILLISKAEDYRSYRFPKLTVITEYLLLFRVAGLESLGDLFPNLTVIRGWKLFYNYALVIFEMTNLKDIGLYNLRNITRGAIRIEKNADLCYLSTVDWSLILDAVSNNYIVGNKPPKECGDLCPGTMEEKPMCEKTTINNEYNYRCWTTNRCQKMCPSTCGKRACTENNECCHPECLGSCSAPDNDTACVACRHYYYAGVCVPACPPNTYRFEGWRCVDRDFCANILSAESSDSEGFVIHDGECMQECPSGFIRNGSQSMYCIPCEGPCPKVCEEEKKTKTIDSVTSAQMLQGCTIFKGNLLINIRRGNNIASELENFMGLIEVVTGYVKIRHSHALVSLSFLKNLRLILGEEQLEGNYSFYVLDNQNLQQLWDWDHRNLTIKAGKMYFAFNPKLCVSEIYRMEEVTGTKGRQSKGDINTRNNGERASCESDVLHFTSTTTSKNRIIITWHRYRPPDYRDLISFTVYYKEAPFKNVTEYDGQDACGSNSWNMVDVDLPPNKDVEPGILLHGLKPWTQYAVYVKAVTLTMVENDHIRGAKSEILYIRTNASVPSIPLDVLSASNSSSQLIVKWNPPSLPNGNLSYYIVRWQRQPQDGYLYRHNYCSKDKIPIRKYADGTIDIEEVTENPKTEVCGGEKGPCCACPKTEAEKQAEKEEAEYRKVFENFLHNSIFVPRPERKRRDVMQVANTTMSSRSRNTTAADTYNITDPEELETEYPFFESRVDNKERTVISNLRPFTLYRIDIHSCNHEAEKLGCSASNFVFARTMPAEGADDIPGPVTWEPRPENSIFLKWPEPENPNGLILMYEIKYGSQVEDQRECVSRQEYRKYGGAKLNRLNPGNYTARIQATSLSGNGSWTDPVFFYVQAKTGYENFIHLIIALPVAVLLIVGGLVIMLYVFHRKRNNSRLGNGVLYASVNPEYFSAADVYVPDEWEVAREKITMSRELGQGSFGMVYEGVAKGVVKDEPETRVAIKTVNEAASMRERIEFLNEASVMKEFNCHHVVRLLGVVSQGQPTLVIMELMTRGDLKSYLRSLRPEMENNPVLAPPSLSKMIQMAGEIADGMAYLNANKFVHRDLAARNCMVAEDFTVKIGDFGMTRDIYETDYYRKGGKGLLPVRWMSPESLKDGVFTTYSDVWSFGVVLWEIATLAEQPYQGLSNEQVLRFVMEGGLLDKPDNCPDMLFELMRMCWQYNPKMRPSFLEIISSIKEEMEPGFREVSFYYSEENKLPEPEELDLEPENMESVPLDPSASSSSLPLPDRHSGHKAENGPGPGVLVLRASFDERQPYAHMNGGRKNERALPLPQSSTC
UniProt P63165, residues 1-97: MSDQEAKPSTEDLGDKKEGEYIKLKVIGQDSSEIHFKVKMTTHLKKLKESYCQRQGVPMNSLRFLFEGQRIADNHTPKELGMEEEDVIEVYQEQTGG

The target is the same in test [2]. Described as above. This is another data set of the same source.

Where two headings read alike, the source gives them in different places. No constants are given. Whether binding was seen depends on the method and setting. Binding seen in cells or lysates may run through a third protein. Some binding calls cover weakened binding; strength is not graded here.

In the case of “Small ubiquitin-like modifier-1 (from UniProt P63165 1-97)”, the binding entry in test [1] was “binds”.

B1: Biglycan (protein, UniProt P21810 38-368)
chain: DEEASGADTSGVLDPDSVTPTYSAMCPFGCHCHLRVVQCSDLGLKSVPKEISPDTTLLDLQNNDISELRKDDFKGLQHLYALVLVNNKISKIHEKAFSPLRKLQKLYISKNHLVEIPPNLPSSLVELRIHDNRIRKVPKGVFSGLRNMNCIEMGGNPLENSGFEPGAFDGLKLNYLRISEAKLTGIPKDLPETLNELHLDHNKIQAIELEDLLRYSKLYRLGLGHNQIRMIENGSLSFLPTLRELHLDNNKLARVPSGLPDLKLLQVVYLHSNNITKVGVNDFCPMGFGVKRAYYNGISLFNNPVPYWEVQPATFRCVTDRLAIQFGNYKK
Take B1: the binding entry in test [2] is on record as “binds”.

For the origin of these results see article PMC8909324.
